In ChEMBL document CHEMBL5674883, “The Heterochromatin Landscape in Migrating Cells and the Importance of H3K27me3 for Associated Transcriptome Alterations” (Cells, 2018) one finds log2FC data, which are given here for two compounds.

By UniProt entry, the sequences of proteins in these tests, tags left out.
UniProt Q61188, whole entry: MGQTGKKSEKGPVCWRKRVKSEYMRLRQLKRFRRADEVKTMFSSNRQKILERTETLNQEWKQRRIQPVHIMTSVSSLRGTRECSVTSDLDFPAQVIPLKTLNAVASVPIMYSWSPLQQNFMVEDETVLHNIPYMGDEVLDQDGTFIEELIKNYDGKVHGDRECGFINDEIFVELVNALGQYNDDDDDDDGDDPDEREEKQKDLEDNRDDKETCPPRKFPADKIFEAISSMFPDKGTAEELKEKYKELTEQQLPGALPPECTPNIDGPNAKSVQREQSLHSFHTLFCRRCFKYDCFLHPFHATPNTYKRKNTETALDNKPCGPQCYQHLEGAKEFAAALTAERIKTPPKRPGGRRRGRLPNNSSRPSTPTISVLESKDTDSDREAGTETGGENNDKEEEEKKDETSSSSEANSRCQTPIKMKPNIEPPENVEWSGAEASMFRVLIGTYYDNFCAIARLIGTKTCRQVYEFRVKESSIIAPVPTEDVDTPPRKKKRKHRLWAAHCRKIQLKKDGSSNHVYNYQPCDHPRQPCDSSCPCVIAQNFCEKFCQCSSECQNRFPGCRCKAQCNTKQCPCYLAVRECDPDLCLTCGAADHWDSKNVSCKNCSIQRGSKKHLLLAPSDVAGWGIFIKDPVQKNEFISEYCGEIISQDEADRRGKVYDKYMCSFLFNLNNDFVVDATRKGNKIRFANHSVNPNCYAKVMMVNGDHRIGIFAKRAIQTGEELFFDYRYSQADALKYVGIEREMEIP

Common to all, as to format: cell-based
The target in test [1] is T1, RNA polymerase II (Mus musculus) (UniProt P08775+Q8CFI7+P97760+A0A3Q4L2S8+Q80UW8+P61219+P62488+Q923G2+P60898+O08740+Q63871+P62876). The test is described as follows: Inhibition of RNA polymerase II in mouse B16-F1 migrating cells assessed as fold change in Dcun1d1-RNA stability at 0.1 mM measured by ChIP-seq analysis relative to control cells.
The target in test [2] is T1, RNA polymerase II (Mus musculus). The test is described as follows: Inhibition of RNA polymerase II in mouse B16-F1 migrating cells assessed as fold change in Msl2-RNA stability at 0.1 mM measured by ChIP-seq analysis relative to control cells.
Test [3] shares this target. The test is described as follows: Inhibition of RNA polymerase II in mouse B16-F1 migrating cells assessed as fold change in Hnrnph1-RNA stability at 0.1 mM measured by ChIP-seq analysis relative to control cells.
The target is the same in test [4]. The test is described as follows: Inhibition of RNA polymerase II in mouse B16-F1 migrating cells assessed as fold change in Itgb1-RNA stability at 0.1 mM measured by ChIP-seq analysis relative to control cells.
Test [5] shares this target. In words: Inhibition of RNA polymerase II in mouse B16-F1 migrating cells assessed as fold change in Pigk-RNA stability at 0.1 mM measured by ChIP-seq analysis relative to control cells.
Test [6] shares this target. The test is described as follows: Inhibition of RNA polymerase II in mouse B16-F1 migrating cells assessed as fold change in Kif11-RNA stability at 0.1 mM measured by ChIP-seq analysis relative to control cells.
Test [7] shares this target. The test is described as follows: Inhibition of RNA polymerase II in mouse B16-F1 migrating cells assessed as fold change in Csnk1g2-RNA stability at 0.1 mM measured by ChIP-seq analysis relative to control cells.
Test [8] has the same target. The test is described as follows: Inhibition of RNA polymerase II in mouse B16-F1 migrating cells assessed as fold change in Secisbp2l-RNA stability at 0.1 mM measured by ChIP-seq analysis relative to control cells.
Test [9] shares this target. In words: Inhibition of RNA polymerase II in mouse B16-F1 migrating cells assessed as fold change in Taok1-RNA stability at 0.1 mM measured by ChIP-seq analysis relative to control cells.
Test [10] has the same target. The test is described as follows: Inhibition of RNA polymerase II in mouse B16-F1 migrating cells assessed as fold change in Cadm1-RNA stability at 0.1 mM measured by ChIP-seq analysis relative to control cells.
Test [11] shares this target. The test is described as follows: Inhibition of RNA polymerase II in mouse B16-F1 migrating cells assessed as fold change in Clock-RNA stability at 0.1 mM measured by ChIP-seq analysis relative to control cells.
Test [12] shares this target. In words: Inhibition of RNA polymerase II in mouse B16-F1 migrating cells assessed as fold change in Aup1-RNA stability at 0.1 mM measured by ChIP-seq analysis relative to control cells.
Test [13] shares this target. In words: Inhibition of RNA polymerase II in mouse B16-F1 migrating cells assessed as fold change in Nr1h2-RNA stability at 0.1 mM measured by ChIP-seq analysis relative to control cells.
Test [14] shares this target. The test is described as follows: Inhibition of RNA polymerase II in mouse B16-F1 migrating cells assessed as fold change in Twsg1-RNA stability at 0.1 mM measured by ChIP-seq analysis relative to control cells.
Test [15] has the same target. The test is described as follows: Inhibition of RNA polymerase II in mouse B16-F1 migrating cells assessed as fold change in Fam60a-RNA stability at 0.1 mM measured by ChIP-seq analysis relative to control cells.
The target is the same in test [16]. In words: Inhibition of RNA polymerase II in mouse B16-F1 migrating cells assessed as fold change in 9530082P21Rik-RNA stability at 0.1 mM measured by ChIP-seq analysis relative to control cells.
Test [17] shares this target. The test is described as follows: Inhibition of RNA polymerase II in mouse B16-F1 migrating cells assessed as fold change in Tmem56-RNA stability at 0.1 mM measured by ChIP-seq analysis relative to control cells.
Test [18] has the same target. In words: Inhibition of RNA polymerase II in mouse B16-F1 migrating cells assessed as fold change in Ccnt1-RNA stability at 0.1 mM measured by ChIP-seq analysis relative to control cells.
For test [19] the target is unchanged. The test is described as follows: Inhibition of RNA polymerase II in mouse B16-F1 migrating cells assessed as fold change in Ddit4-RNA stability at 0.1 mM measured by ChIP-seq analysis relative to control cells.
Test [20] has the same target. In words: Inhibition of RNA polymerase II in mouse B16-F1 migrating cells assessed as fold change in Smpd1-RNA stability at 0.1 mM measured by ChIP-seq analysis relative to control cells.
Test [21] shares this target. In words: Inhibition of RNA polymerase II in mouse B16-F1 migrating cells assessed as fold change in 5730455P16Rik-RNA stability at 0.1 mM measured by ChIP-seq analysis relative to control cells.
Test [22] deals with Histone-lysine N-methyltransferase EZH2 (Mus musculus) (UniProt Q61188). In words: Inhibition of EZH2 in mouse B16-F1 migrating cells assessed as fold change in H3K27me3-buffered regulated Wfikkn2-mRNA expression at 3 uM measured by ChIP-seq analysis relative to control cells.
The target is the same in test [23]. In words: Inhibition of EZH2 in mouse B16-F1 migrating cells assessed as fold change in H3K27me3-buffered regulated Ing2-mRNA expression at 3 uM measured by ChIP-seq analysis relative to control cells.
Test [24] shares this target. The test is described as follows: Inhibition of EZH2 in mouse B16-F1 migrating cells assessed as fold change in H3K27me3-independent regulated Ncald-mRNA expression at 3 uM measured by ChIP-seq analysis relative to control cells.
Test [25] has the same target. The test is described as follows: Inhibition of EZH2 in mouse B16-F1 migrating cells assessed as fold change in H3K27me3-buffered regulated Bcl9l-mRNA expression at 3 uM measured by ChIP-seq analysis relative to control cells.
Test [26] shares this target. The test is described as follows: Inhibition of EZH2 in mouse B16-F1 migrating cells assessed as fold change in H3K27me3-dependent regulated Vasn-mRNA expression at 3 uM measured by ChIP-seq analysis relative to control cells.
Test [27] shares this target. The test is described as follows: Inhibition of EZH2 in mouse B16-F1 migrating cells assessed as fold change in H3K27me3-buffered regulated Rapgef4-mRNA expression at 3 uM measured by ChIP-seq analysis relative to control cells.
Test [28] shares this target. In words: Inhibition of EZH2 in mouse B16-F1 migrating cells assessed as fold change in H3K27me3-dependent regulated Sertad1-mRNA expression at 3 uM measured by ChIP-seq analysis relative to control cells.
For test [29] the target is unchanged. The test is described as follows: Inhibition of EZH2 in mouse B16-F1 migrating cells assessed as fold change in H3K27me3-buffered regulated Ppp1r15a-mRNA expression at 3 uM measured by ChIP-seq analysis relative to control cells.
The target is the same in test [30]. The test is described as follows: Inhibition of EZH2 in mouse B16-F1 migrating cells assessed as fold change in H3K27me3-buffered regulated Syngr4-mRNA expression at 3 uM measured by ChIP-seq analysis relative to control cells.

Each structure is given as a SMILES string. The source gives many values for each of these; only a part stands here.

Turning to `OC[C@H]1O[C@@H](n2cnc3cc(Cl)c(Cl)cc32)[C@H](O)[C@@H]1O`, the log2FC is -0.66 in [1]; -0.66 in test [2]; -0.62 in [3]; -0.48 in [4]; -0.41 in test [5]; -0.88 in test [6]. Moreover, the log2FC in test [7] is 0.39; in test [8], -0.62; in test [9], -0.5; in test [10], -0.41; in test [11], -0.64; in test [12], 0.43. The log2FC was 0.48 in test [13]; -0.45 in [14]; -0.71 in test [15]; 0.4 in [16]; -0.66 in test [17]; -0.53 in [18]. In addition, the log2FC in [19] is -0.61; in [20], 0.54; in test [21], -0.55.

Take `CCCc1cc(C)[nH]c(=O)c1CNC(=O)c1cc(-c2ccnc(N3CCN(C)CC3)c2)cc2c1cnn2C(C)C`: the log2FC is 0.47 in test [22]; -0.4 in [23]; 0.78 in [24]; -0.51 in [25]; 0.43 in test [26]; -0.46 in test [27]. In addition, the log2FC is 0.25 in [28], 0.55 in test [29] and 0.79 in test [30].
